103 sequences from PubChem BioAssay AID1347423 (Functional Genomics Laboratory (NCATS/FGL), 2020) can be followed below.

Among all 52,000 sequences or so, about 210 (0.4%) were called active.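 Rule for the calls: active = gene whose silencing raises cell survival under the drug, median off-target-corrected z-score across its silencing RNAs 2 or more; inactive = the rest.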 Some of the results follow.

The assay is described as follows: Resistance to Poly (ADP-Ribose) Polymerase inhibitor: Gene Identification via Genome-wide siRNA Screen. The settings on record: mouse BRCA2 R2336H ES cells, olaparib, CellTiter-Glo viability; hits give high values. The method in brief:
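Mouse BRCA2 R2336H ES cells were reverse-transfected with siRNA (20 nM final), treated at 48 h with 500 nM olaparib, and read by CellTiter-Glo after 72 h. Scores: MAD-based z per siRNA, median per gene, seed off-target correction.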
In general terms: Cellular ATP, detected with luciferase, serves as a proxy for viable cell number.
Regarding GGACUGUUCUUUCAAUAAGTT against Disp2, the z-score is inactive: -0.448.
The value for “CCGCUUUCGGCAAGUAUGGTT against 1700012H05Rik” was inactive: -0.0385; that for GCAGAGAUUACACAAAUAGTT against Brd7 was inactive: -1.3.
As for “GGUAGGGUUUCAUUAUGAATT against 1500003D12Rik”, the z-score is inactive: 0.908.
With CGUCCCUAGUAUAAAAAGATT against Cxxc5, the z-score was inactive: -0.568.
GCAUCAUCGUGGGAAACCUTT against Olfr1284: the z-score was inactive: 2.12.
As to GCAAUUGAGACUGGCCUCATT against Olfr151, the z-score is inactive: 0.42.
Under “GGAUGCUAUAUGUUGGCCGTT against D730001G18Rik” stands inactive: -0.507; under CCUGUUGUCAUGCACUUUATT against Pla2g4c, inactive: 1.21; under GAGUAUGCUACCAAUUCCUTT against Olfr1141, inactive: -0.222.
On to CCUACGUUCAAGACUCGAGTT against Ptgir, for which the z-score was inactive: -1.08.
As to “CCAUAAAGAACAUCACUAATT against C330012H03Rik”, the z-score is inactive: -0.31.
With “GAGCUGCUAAUGGAACCCUTT against 5730411O18Rik”, the z-score was inactive: -1.34.
For GGUAUUUCAGAUAACCUGGTT against Gm1805, the z-score is inactive: 0.0577.
As to GGUGCCGCACACAAACAAUTT against Hipk2, the z-score was inactive: 2.34.
Under GGCGAGUCUACGUGACACUTT against Arrb1 stands inactive: -0.347; under GGACAUUUGAGCUCAAGAUTT against Mrpl11, inactive: -0.148; under UCCUCUCUCUAUAUUUCUUTT against Defb38, inactive: -0.168.
For the sequence CGAAAUUGAUUCUAUCUGCTT against Katnal1, the z-score is inactive: -0.271.
Under GCCGUUUUCCACCAAUGACTT against Ammecr1 stands inactive: -0.787; under CGCUUGACACUCACACUUUTT against Hoxa9, inactive: 0.637.
For the sequence GGUUUCUGCAUUGAUAAGATT against Olfr727, the z-score was inactive: 0.194.
As for “CCCUCAUACCGCUUAGAACTT against 4833401D15Rik”, the z-score is inactive: -0.415.
The value for GGAAGGUAUAGACAACUAUTT against Syngr3 was inactive: -1.11; that for GGUCCUGAAGAAGAUUGCATT against Hmox1 was inactive: -1.95; that for GGUAGAUAUUGGAAUACCUTT against Vcp was inactive: -1.91.
Regarding GGGAAGAAGCCCAAAUGCUTT against Pla2g2a, the z-score is inactive: -0.754.
Under GGUGAAGCCAGUUUCUUUATT against AI429613 stands inactive: 1.42; under GAAGAGUAACGAAGAAUACTT against Olfr199, inactive: -0.791.
The value for GGGCCACACAUCAAACAGUTT against Fsip1 was inactive: 1.88; that for “CGGAAGAAGUUAUUUAGAATT against 1700006J14Rik” was inactive: -0.374; that for CCUGCUCCAACGUAAUGUCTT against Ldh3 was inactive: -1.58.
Consider GGUUGUCGUCAUCCUGGAATT against Kcnj3, for which the z-score is inactive: 1.61.
The value for CCAGUACUCACUAGAUUUATT against Tnfsf18 was inactive: 0.701; that for GGAAAACAAGAGAAGGCGCTT against Pom121 was inactive: -0.933.
Regarding “GGUUCUCAAAGAAAAGUUUTT against 1810056O20Rik”, the z-score was inactive: -0.145.
As to GGUGAAAUCCUGAUGUUUUTT against Vps33b, the z-score is inactive: 0.0823.
The value for CCUUCCUAAGCUUACACAATT against Cradd was inactive: -0.761.
Regarding GGUAGCCAUAUCUAACAGCTT against Scd1, the z-score is inactive: 0.197.
With GGUGAUGAGCAGAAUCCAGTT against BC004701, the z-score was inactive: -0.121.
Turning to CCCUAUGCAAUAUCAAAAUTT against Hnrpa1, the z-score was inactive: -0.658.
As for GGUGCUGUAUUUGAUGUUATT against Nudt6, the z-score is inactive: 0.00281.
In the case of GCAAAUGUCUCGGAAAGAATT against Cdc2l1, the z-score is inactive: -3.6.
Turning to GCACCGAGUGCAAUAGUGUTT against Kremen, the z-score was inactive: 2.19.
Turning to GCACUCACGAUCAUCUUUGTT against Has1, the z-score is inactive: 0.122.
In the case of GGAGAAGAUGCCAAUCAAGTT against Mdm1, the z-score is inactive: 0.229.
On to “AAUAACAGGCCGGUCGAGATT against 2410025L10Rik”, for which the z-score is inactive: -0.531.
As to “GCAGUUCACGCAGUGGAAGTT against 2200001I15Rik”, the z-score was inactive: 0.855.
“CCGCUCUACCACAGCCUUATT against 3732413I11Rik”: the z-score is inactive: -1.97.
With GGACAUUGCUACACAACUCTT against Akp3, the z-score was inactive: 0.851.
With “GGUAUAAAGACUGUGUAAATT against 2610305D13Rik”, the z-score was inactive: -0.437.
As for GGCAAAUCACAUCCAACAATT against Cyp2c39, the z-score is inactive: -1.28.
On to GCGAAAGCCUCUCCAUAAGTT against Lnx1, for which the z-score is inactive: -0.162.
For the sequence GGGUGCCUUAAAAAAACUCTT against Olfr136, the z-score was inactive: -0.749.
With GGUGGAUAGUUAUAAAGCATT against AU016693, the z-score was inactive: -1.13.
As to GGGUUGAAGUUUGUCGAAATT against Nlgn1, the z-score was inactive: -0.228.
Under GGAAGAUUCGUUCAGACCUTT against Cntf stands inactive: 0.48; under “GCUGUACAGUCAAUACCUGTT against D10Bwg1364e”, inactive: 2.01.
As for GGCGUAAGUUGGAUUUGUUTT against Idh3b, the z-score is inactive: 0.425.
As to GGAAAAUGUCCGUAAAAGGTT against Dtx2, the z-score is inactive: 0.845.
For the sequence “GGCAAACUCUAUCUCCAAATT against 2610524G09Rik”, the z-score is inactive: 0.0995.
“GCCACUUCAUAUUUUUGACTT against 4632422M10Rik”: the z-score was inactive: -0.417.
The value for GGCAUUUGAAAUGCUCAUCTT against Aadat was inactive: -0.837; that for GCACGCCUGAUGCUAGAGATT against Gss was inactive: -1.45; that for “GGAAAAAAGCCGGGAAACCTT against 2410026K10Rik” was inactive: -0.986.
Turning to CGGUCCUGAGGAAGUGUUATT against Wfdc1, the z-score was inactive: 2.47.
Consider GGAGGAAUUUGGCUAUAAUTT against Arfip2, for which the z-score was inactive: -2.36.
Under GGUUUUACCACAGAUUUGCTT against Olfr42 stands inactive: -1.11; under “GGAAGAAUUGGCAAGUGCUTT against 0610012D17Rik”, inactive: -0.32.
Regarding GCAGCAUACUAAUAAACUGTT against Them2, the z-score is inactive: 0.278.
For the sequence GGAUAUUCCGGAAGAUAUUTT against Mrpl13, the z-score is inactive: -0.0797.
As for GGCCUUAGAAUUUGAUUCUTT against Slc30a8, the z-score is inactive: 1.95.
As for GGCUUUCCUAUCAUGGUUUTT against Anp32e, the z-score was inactive: -0.278.
As for CGGCAUCCUAGACACCUUUTT against Rax, the z-score was inactive: 1.14.
Regarding GACUCUCACCUCCUUGAAUTT against Krtap16-8, the z-score is inactive: -0.327.
As for “GGUUAAACUGUGAAUCCAUTT against A930037J23Rik”, the z-score is inactive: 1.03.
In the case of GCUUGUCUCACACAGCUCUTT against Olfr401, the z-score was inactive: -0.379.
Under “GGUCUCCUGUACAGAAAAUTT against 1300010M03Rik” stands inactive: -0.145.
As to CGGUUUAACAGCAAGGGUATT against Sec61a1, the z-score is inactive: 0.482.
Regarding CGACCAAGUCAUUGUUAAGTT against Igf2bp1, the z-score is inactive: -0.706.
The value for GGAGGCCGUAAUAUCUCCUTT against Krt1-13 was inactive: 2.25; that for “GCCAAGUUAGAAGUUAGAATT against 2900055D03Rik” was inactive: 0.206; that for “GGACAGUUAAUGUUUCUGUTT against C130052I12Rik” was inactive: 0.696.
Turning to “GGCCUAGAUAGAAUUCGUGTT against 6330403K07Rik”, the z-score was inactive: 0.974.
Turning to GGAUGAAGAGAAAGUUCUATT against Mak, the z-score is inactive: 2.99.
Under GGUUUCCCUAGGAAAAAACTT against Klk9 stands inactive: 0.524.
For GCUCUUCAGUUUAUAGUGUTT against Taar3, the z-score was inactive: 0.116.
The value for GGAUGACUGUAAGUUACGGTT against Mast2 was inactive: 0.107; that for GGGUCAUCAACUCUUACAATT against Gga3 was inactive: 0.871; that for GGUGAUGAAGGAUUUGAUUTT against Cbll1 was inactive: 0.185.
The value for GGCGAGGAUGGUAUUGAGATT against Sema3f was inactive: 0.343; that for GGUGAUUUAGUUGUGUAAATT against Calcr was inactive: -0.00709; that for “GGGCUCUGAGAAAAGACAATT against 4921530L21Rik” was inactive: -1.61.
With GGGUGAGGGCAUUAGAGAUTT against E2f1, the z-score was inactive: 0.927.
Take GGAAGAAAUACUACAGCCATT against Ptpn12: the z-score is inactive: -0.919.
Take “GCUGUGCAUAUGGUAUAUUTT against 2810468K05Rik”: the z-score is inactive: -0.0681.
Consider GGCCAAAUAUUGAUCUUAATT against Rgs4, for which the z-score was inactive: -1.04.
As to GCGAGCUAAUGUCACAUUCTT against Il17r, the z-score was inactive: -1.64.
GGAAAUCCACAGAUUAAGATT against Stch: the z-score was inactive: 1.12.
GGAAAACAUUAAGAAGGGCTT against Ctgf: the z-score was inactive: 1.28.
On to GGUGUGUGGUGUUAAAAAATT against Mybph, for which the z-score is inactive: 1.54.
With GGGCCUCCAAUUUGUGGCUTT against Cd1d1, the z-score is inactive: 0.57.
On to “GGCCAGACACUACAGGUAATT against 2410004H02Rik”, for which the z-score was inactive: -0.68.
